No constants are given. Whether binding was seen depends on the method and setting. In cells and extracts the contact can be indirect. These calls come from enrichment with a bait or labelling near it, and not all partners need be listed. For part of these data: No binding means not detected with the bait. Sequences can lack the tags named with a protein. Blank lines part the entries; values can stand above or below the molecule they belong to.
What was measured:
[1] = target: T1, One-STrEP-tag:ATARP4 fusion protein (Arabidopsis thaliana) (UniProt Q84M92); assay: affinity purification with mass spectrometry; One-STrEP-tagged bait stably expressed in Arabidopsis T87 suspension cells; extract in buffer H or L loaded on Strep-Tactin Superflow resin, seven washes (100 mM Tris-HCl pH 8.0, 150 mM NaCl), eluted with 2.5 mM desthiobiotin; MS/MS (Orbitrap Velos); hits of controls with no bait or Strep-GFP removed
T1 sequence: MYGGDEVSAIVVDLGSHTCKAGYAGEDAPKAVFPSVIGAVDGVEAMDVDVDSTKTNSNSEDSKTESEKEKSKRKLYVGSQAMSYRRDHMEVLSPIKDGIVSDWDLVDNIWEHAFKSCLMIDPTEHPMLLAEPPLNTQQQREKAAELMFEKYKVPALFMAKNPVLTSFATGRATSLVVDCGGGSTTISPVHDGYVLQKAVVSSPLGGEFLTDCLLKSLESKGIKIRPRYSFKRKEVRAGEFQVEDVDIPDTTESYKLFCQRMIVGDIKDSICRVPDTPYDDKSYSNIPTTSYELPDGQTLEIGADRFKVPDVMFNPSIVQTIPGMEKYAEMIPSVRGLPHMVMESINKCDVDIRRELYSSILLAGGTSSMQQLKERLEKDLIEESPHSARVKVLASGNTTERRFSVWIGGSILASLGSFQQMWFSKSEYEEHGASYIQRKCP

Sequences of proteins named here, by UniProt entry; tags and fusion partners are left off. A change or cut given only in a name is not applied to a line headed by its entry.
UniProt Q7X9V2: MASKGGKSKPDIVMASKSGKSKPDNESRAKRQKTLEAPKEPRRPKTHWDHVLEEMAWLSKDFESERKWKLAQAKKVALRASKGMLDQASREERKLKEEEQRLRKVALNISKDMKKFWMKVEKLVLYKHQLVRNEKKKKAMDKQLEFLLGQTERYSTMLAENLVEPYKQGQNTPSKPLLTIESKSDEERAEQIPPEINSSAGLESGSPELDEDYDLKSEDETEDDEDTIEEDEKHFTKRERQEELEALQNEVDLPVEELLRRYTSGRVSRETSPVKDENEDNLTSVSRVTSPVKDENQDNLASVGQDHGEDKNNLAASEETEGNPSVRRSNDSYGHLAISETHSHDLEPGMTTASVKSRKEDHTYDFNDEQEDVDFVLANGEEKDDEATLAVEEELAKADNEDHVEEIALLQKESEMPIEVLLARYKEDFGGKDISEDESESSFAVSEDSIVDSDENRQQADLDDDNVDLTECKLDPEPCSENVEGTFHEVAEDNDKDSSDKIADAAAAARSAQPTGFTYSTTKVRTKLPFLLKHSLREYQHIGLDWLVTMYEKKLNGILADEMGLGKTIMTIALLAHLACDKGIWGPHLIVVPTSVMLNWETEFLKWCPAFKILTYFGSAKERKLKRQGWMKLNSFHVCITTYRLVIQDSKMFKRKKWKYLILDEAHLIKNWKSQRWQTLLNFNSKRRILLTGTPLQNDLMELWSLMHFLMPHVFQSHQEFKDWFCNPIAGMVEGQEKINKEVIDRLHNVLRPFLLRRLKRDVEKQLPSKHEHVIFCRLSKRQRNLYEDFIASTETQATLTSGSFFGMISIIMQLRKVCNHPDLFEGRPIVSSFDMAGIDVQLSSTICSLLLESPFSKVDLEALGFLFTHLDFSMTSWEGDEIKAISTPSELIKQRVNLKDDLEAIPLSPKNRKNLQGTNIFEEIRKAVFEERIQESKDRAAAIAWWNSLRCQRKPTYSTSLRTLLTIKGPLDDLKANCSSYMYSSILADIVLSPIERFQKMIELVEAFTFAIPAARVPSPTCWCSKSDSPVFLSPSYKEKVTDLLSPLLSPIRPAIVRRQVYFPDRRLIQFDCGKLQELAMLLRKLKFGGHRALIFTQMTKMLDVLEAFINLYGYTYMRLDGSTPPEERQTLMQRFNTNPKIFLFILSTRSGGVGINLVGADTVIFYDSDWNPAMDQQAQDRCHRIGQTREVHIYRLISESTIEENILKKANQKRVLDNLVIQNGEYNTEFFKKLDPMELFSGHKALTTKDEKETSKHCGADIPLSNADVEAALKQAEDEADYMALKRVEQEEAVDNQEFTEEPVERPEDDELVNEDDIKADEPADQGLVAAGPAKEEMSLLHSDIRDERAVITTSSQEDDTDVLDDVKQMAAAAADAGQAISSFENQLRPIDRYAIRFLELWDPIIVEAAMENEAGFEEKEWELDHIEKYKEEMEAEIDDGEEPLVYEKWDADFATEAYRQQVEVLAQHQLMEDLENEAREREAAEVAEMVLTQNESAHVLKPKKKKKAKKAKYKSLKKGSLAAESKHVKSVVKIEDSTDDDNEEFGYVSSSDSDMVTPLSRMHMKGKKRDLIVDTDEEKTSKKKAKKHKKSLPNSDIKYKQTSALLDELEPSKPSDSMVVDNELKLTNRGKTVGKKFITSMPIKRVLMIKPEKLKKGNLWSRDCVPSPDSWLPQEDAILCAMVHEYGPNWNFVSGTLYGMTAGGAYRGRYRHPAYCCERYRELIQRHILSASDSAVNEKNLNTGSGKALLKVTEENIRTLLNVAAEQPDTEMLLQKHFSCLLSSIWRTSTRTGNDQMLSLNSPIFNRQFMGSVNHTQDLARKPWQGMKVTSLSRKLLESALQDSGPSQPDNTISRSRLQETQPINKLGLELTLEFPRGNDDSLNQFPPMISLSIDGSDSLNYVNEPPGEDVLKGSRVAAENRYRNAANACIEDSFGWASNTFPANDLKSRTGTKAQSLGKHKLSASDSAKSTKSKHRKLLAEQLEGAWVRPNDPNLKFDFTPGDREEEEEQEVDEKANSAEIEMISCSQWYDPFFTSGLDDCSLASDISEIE
UniProt Q6EVK6: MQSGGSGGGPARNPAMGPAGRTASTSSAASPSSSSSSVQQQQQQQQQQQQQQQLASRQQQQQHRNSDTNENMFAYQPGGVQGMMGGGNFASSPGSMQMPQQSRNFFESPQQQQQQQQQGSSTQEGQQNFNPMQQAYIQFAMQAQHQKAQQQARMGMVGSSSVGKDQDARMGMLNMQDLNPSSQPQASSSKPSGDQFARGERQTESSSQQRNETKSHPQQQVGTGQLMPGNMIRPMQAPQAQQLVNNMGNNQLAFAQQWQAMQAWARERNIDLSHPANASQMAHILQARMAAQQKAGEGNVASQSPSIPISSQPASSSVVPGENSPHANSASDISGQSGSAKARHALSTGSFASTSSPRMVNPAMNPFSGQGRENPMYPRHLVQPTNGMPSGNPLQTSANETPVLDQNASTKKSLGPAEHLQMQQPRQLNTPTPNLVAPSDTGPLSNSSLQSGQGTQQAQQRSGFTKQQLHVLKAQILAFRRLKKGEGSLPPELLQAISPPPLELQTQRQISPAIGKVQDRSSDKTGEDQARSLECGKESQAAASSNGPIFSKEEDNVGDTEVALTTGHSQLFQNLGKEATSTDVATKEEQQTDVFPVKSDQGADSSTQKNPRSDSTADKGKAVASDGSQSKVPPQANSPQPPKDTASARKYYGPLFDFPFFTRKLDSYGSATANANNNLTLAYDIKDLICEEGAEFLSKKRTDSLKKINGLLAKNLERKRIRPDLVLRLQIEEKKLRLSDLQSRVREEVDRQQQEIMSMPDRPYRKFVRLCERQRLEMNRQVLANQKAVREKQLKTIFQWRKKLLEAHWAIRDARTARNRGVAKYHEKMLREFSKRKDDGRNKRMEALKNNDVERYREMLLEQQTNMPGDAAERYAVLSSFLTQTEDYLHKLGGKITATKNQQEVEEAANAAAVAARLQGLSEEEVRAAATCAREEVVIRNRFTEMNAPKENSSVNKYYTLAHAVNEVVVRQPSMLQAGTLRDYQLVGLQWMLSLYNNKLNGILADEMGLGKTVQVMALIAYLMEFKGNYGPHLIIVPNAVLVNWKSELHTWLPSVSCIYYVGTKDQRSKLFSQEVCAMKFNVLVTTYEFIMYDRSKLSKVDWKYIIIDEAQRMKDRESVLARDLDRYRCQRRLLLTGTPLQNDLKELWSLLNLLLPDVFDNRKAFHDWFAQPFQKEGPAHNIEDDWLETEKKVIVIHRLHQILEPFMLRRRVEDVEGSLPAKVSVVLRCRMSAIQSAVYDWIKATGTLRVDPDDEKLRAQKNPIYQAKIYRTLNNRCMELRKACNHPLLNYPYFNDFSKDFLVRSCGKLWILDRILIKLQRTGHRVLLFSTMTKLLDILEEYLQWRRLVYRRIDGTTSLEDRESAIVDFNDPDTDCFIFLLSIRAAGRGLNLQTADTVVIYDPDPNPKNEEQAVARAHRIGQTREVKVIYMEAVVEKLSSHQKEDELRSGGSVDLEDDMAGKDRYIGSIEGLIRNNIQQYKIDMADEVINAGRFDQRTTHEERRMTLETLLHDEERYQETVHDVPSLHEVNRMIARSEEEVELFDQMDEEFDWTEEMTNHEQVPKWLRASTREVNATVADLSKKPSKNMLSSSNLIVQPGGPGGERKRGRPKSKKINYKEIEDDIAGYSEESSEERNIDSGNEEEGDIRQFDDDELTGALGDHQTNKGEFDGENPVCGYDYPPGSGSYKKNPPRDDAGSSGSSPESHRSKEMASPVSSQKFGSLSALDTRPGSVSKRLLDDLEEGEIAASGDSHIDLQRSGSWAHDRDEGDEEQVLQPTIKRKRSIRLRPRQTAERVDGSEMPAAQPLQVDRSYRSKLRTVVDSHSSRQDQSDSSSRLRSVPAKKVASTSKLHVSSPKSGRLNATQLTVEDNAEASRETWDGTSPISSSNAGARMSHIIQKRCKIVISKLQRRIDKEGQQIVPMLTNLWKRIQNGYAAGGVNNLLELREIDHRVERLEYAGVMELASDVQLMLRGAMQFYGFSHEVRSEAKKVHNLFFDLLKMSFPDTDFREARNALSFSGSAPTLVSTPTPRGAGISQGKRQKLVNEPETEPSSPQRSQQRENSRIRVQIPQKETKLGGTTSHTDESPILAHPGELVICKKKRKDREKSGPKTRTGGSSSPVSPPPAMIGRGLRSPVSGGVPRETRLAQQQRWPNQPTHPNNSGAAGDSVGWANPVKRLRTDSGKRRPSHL
UniProt F4IDH5: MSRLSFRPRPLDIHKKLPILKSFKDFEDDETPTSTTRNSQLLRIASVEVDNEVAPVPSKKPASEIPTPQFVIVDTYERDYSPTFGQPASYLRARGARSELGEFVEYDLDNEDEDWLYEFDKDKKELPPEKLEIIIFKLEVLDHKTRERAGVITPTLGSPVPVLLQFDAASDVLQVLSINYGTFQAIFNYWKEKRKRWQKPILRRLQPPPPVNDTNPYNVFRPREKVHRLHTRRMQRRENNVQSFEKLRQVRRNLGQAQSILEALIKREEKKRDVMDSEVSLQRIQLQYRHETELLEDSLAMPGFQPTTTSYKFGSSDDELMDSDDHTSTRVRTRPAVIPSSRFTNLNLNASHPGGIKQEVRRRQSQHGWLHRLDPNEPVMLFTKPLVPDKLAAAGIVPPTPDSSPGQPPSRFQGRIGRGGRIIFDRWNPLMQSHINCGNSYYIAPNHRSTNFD
UniProt Q9FMT4: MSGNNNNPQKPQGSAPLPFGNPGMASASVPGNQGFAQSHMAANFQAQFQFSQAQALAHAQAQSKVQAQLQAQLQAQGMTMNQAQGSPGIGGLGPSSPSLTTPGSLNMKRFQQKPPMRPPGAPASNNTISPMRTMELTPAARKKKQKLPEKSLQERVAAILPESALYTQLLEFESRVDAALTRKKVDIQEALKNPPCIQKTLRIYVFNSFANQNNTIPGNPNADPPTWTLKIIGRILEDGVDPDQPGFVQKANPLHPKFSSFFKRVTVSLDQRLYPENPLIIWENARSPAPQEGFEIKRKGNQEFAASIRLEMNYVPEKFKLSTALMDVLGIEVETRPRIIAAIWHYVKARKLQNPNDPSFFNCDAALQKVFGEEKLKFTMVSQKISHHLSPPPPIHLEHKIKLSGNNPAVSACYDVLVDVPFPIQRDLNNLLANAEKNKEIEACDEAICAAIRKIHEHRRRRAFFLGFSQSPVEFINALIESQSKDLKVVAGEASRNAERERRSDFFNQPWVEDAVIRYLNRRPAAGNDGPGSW
UniProt Q9FH40: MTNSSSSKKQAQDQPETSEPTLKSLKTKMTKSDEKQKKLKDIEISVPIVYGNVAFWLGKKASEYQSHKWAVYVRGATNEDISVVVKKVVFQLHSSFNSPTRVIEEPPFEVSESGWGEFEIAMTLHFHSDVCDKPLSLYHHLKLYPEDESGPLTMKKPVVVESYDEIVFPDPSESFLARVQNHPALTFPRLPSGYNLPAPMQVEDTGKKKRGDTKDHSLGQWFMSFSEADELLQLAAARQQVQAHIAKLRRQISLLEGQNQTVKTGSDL
UniProt Q9FZD2: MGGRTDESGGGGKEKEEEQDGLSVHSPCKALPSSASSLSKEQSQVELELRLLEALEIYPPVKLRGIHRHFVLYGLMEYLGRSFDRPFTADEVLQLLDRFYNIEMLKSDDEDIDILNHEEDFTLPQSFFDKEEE
UniProt F4K569: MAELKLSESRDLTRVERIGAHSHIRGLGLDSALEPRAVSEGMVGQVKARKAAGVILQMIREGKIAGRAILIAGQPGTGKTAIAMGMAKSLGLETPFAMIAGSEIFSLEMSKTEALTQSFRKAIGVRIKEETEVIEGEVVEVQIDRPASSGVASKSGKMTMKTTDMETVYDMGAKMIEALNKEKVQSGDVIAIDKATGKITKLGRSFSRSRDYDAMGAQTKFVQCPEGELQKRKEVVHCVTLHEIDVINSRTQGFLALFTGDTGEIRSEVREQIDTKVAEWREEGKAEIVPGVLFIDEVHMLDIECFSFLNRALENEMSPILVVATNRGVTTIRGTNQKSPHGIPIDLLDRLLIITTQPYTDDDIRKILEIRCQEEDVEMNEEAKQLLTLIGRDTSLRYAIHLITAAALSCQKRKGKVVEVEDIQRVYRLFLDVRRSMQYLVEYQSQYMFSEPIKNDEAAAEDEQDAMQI
UniProt Q9FMR9: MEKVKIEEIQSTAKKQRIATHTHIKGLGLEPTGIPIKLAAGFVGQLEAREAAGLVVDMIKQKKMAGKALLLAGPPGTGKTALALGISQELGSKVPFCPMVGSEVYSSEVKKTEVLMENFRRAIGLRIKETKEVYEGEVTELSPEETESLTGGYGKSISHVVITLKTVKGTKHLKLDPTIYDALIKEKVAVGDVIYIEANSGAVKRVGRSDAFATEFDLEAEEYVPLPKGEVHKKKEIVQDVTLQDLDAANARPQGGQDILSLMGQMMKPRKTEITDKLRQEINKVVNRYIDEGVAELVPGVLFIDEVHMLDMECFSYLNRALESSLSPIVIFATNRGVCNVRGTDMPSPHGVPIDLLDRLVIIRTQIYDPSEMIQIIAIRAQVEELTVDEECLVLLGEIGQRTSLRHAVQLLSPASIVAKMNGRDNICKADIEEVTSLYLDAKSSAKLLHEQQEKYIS

[2] = target: T2, One-STrEP-tag:ATSWC4 fusion protein (Arabidopsis thaliana) (UniProt Q8VZL6); assay: as above
T2 sequence: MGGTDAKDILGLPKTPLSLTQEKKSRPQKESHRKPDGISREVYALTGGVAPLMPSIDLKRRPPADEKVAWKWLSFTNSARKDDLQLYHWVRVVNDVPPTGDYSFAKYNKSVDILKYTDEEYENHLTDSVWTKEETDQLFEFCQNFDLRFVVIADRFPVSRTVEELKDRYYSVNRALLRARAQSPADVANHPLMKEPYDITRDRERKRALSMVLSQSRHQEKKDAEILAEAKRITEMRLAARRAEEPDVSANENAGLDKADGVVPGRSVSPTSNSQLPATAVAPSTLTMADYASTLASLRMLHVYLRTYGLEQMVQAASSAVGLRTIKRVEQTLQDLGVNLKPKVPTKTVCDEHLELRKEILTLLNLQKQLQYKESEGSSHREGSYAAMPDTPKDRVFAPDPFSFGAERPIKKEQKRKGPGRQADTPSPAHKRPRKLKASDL

binding [1]: binds
binding [2]: no binding
Molecule: SYD (from UniProt F4IHS2 1-3574)

binding [1]: binds
binding [2]: binds
Molecule: PIE1 (from UniProt Q7X9V2 1-2055)

binding [1]: binds
binding [2]: no binding
Molecule: BRM (from UniProt Q6EVK6 1-2193)

binding [1]: binds
binding [2]: binds
Molecule: EPL1B (from UniProt F4IDH5)

binding [1]: binds
binding [2]: binds
Molecule: AtEAF1A (from UniProt F4J7T3)

binding [2]: binds
B1: MRG1 (protein, UniProt Q94C32 1-320)
chain: MGSSSKEETASDGDTASGGASPSNDGRLFSEGERVLAYHGPRVYGAKVQKVELRKKEWKYFVHYLGWNKNWDEWVSADRLLKHTEENLVKQKALDKKQGVEKGTKSGRSAQTKTRSSADTKADKDDTKTNAAKGKKRKHESGNEKDNVTAEKLMKIQIPASLKKQLTDDWEYIAQKDKVVKLPRSPNVDEILSKYLEFKTKKDGMVTDSVAEILKGIRSYFDKALPVMLLYKKERRQYQESIVDDTSPSTVYGAEHLLRLFVKLPDLFSYVNMEEETWSRMQQTLSDFLKFIQKNQSTFLLPSAYDSDKVSDGKGKGKDD

binding [1]: binds
binding [2]: no binding
B2: ARP5 (protein, UniProt Q940Z2 1-724)
chain: MAFVSRIRRQSDYNTYPSSIPIVIDNGASYFRIGWAGETEPRVVFRNIVQRPRHKATGETVTIVGDLDPSMMKYFDCTRSGPRSPFDSNVVYQFEIMEYILDYAFDRLGANGSGIDHPILITECACNPVQSRSKMAELLFETYGVPAVAFGVDAAFSYKYNQLHGICKKDGIVLCPGFTTTHSIPFVDGEPIYKGSSRTNIGGYHVTDYLKQLLSLKYPFHSSRFTWEKAEDLKLEHCYIAPDYASEIRLFQEGRKEAEEKTSYWQLPWIPPPTEVPPSEEEIARKAAIREKQGQRLREMAEAKRVSKINDMENQLISLRFLLKQVDQVEEDDIPTFLSDTGYASRQELESTITKVTQSLRKARGEPKNEPAEYEENPDSLNNEKYPLMNVPDDILTPEQLKDKKRQMFLKTTAEGRLRARQKRNEEELEKEKRNQLEEERRRENPESYLEELQAQYKEVLERVEQKKRLKTNGSSNGNNKSGGIGRGERLSAAQRERMRLLTTAAFDRGKGEDTFGSRDEDWQLYKLMSKDNDDDDEQPDSDEAELARLSSRLQEIDPTFVQKVEGELSQTSGEVPRVRPLTEEDYKIVIGIERFRCPEILFHPNLIGIDQVGLDEMAGTSIRRLPHDEKELEERLTSSILMTGGCSLLPGMNERLECGIRMIRPCGSPINVVRAMDPVLDAWRGASAFAANLNFLGNAFTKMDYDEKGEDWLRNYQIRYNYL

binding [1]: binds
binding [2]: no binding
B3: ARP9 (protein, UniProt Q9LSW2 1-596)
chain: MAKPKSNSHLSWQDYLKTVAPTQILSERGANLVVINLGSANVRVGLAMDEKPFNVPNCIARYITQSGKPTVVDQMLNTEVTTNQHVDRERAYNSAASLLKILFLDESSSSGSASRKMGRIDGYNQASTIKKDSVFTWTDVYEDEKISLASPAETSPDKGDASASEAVPDVTDSKDTSESKRKYRKMIFGEEALKISPKEPYCLYHPIRRGHFNVSPHYSAQRVCEDLTAILDWILLEKLHITHKERFSFHAVIVVPETFDTREIKEMLTIVLGELYFNSAVVHQEGLSAVFGNGLTTACIVNIGAQTSTVVCVEDGVSLPNTEKILPFGGEDICRCLLWIQRHYQKWPQINTDVLAKPIDMLMLNQLKESFCEIRAGELETVATVHSYEEGMPAVPHKTNLTSLNVPPMGLFYPNLLVPEIFPQPPRQWFQDYENMLEDTWNMDFGGGGNMGLPMWDSFAFSPSKPKKEEKIGLAEAITSSILSAGRIDLRRKLFSSIQLIGGAGLTKGLVAAVEERVLHAIPPTEAIDTVQVLPSRTEPQFVTWKGGAILGILDFGREAWIERHQWMVNGVNKGGLKKYKDSYHLQGQAMYFINP

binding [2]: binds
B5: ARP6 (protein, UniProt Q8LGE3 1-421)
chain: MSNIVVLDNGGGLIKAGQGGERDPTTVIPNCLYKPLSSKKFIHPSPLTTLSDEIDLTSAAVRRPIDRGYLINSDLQREIWSHLFTSLLHIAPSSSSLLLTEAPLSIPSVQRTTDELVFEDFGFSSLYIAHPQSLVHLYEASRQPDSILSKTQCSLVVDCGFSFTHAVPVLHNFTLNHAIKRIDLGGKAFTNYLKELVSYRSINVMDETFLVDDAKEKLCFVSLDLLRDLRLARNGNTLIKSTYVLPDGVTHTKGYVKDPQAAKRFLSLSEKESVVVMDKVGERKKADMNKNEIDLTNERFLVPETLFQPADLGMNQAGLAECIVRAINSCHSYLQPVLYQSIILTGGSTLFPQLKERLEGELRPLVPDHFDVKITTQEDPILGVWRGGSLLASSPDFESMCVTKAEYEELGSARCRRRFFH

binding [1]: binds
binding [2]: no binding
B6: YY1 (protein, UniProt Q2V3L3 1-387)
chain: MDHQNYQYQNPFERRPILKSKAPAVKWIKEWVPQDIVATGGKCHLHKWVTEDTFSRLKEKEKEPDVPEPEPEPTTEILFLCSYDGCGKTFFDVSALRKHSHIHGERQYVCDQEGCGKKFLDSSKLKRHYLIHTGERNYICTYEGCGKAFSLDFNLRSHMKTHSQENYHICPYSGCVKRYAHEYKLKNHVAAYHEKNGGGETPKYTPPAEKVLRTVKTPATVCGPSSDRPYACPYEGCEKAYIHEYKLKLHLKREHPGHLQEENADTPTLNKHNGNDRNEIDDGSDQDVYRKHASNGKGQTHKQQSRAKPNMRTPPAKVGKKGSTSSPAKARIAKKPWQAKETFEEVEREEEEDSEETEEDRDNVEDGWRFGENNEDDDDDEETEYED

binding [2]: binds
B7: SWC2 (protein, UniProt F4IP06 1-365)
chain: MEIDEEEPMVFLDRTTRATRGKRMTKLLDDEVEEDEQFWNQEALKEEEHDDEYEAEREVADEFDSDFNDDEPEPDAVAVNEKELRDLPKKRLIYPGKTASKKKKKKTKVVSQLEYIPGDEKPGEELGNKEQEEKEENEAQEDMEGEKVIRKSTRTSVVVRQAERDALRAAIQATTKPIQRKKVGEEKRMTQEEMLLEAAQTEIMNLRNLERVLAREEEVKKKAIVHKAVYKGPQIRYHSKDGCNYLEFCNGASFNSELSTKSVPYPEKAVCVITGLPAKYRDPKTGLPYATRDAFKAIRERFMDEHDGLRKKMEMGDLFDTLVAKGFATKQKRTKIPKSNKSFSLRSSARFLSSESEEESEEDSD

Further lines, the molecule ahead of its results:

Molecule: NFRKB
binding [1]: binds
binding [2]: no binding

Molecule: SWP73B (from UniProt Q9FMT4)
binding [1]: binds
binding [2]: no binding

Molecule: EPL1A (from UniProt Q9FX82)
binding [2]: binds

Molecule: SWP73A (from UniProt F4JBZ1)
binding [1]: binds
binding [2]: no binding

Molecule: AtYAF9A (from UniProt Q9FH40)
binding [2]: binds

Molecule: EAF7 (from UniProt Q9FZD2)
binding [2]: binds

Molecule: EAF6
binding [1]: binds
binding [2]: binds

Molecule: RVB21 (from UniProt F4K569)
binding [1]: binds
binding [2]: binds

Molecule: RVB22 (from UniProt Q9M2X5)
binding [1]: binds
binding [2]: binds

Molecule: AtEAF1B (from UniProt F4J7T2)
binding [1]: binds
binding [2]: binds

Molecule: RVB1 (from UniProt Q9FMR9 1-458)
binding [1]: binds
binding [2]: binds

B4: SWC6 (protein, UniProt Q9FHW2 1-171)
chain: MEEEMSNRRVSNRTRKVATKMAAALTSNDNRTQAAIARLEALENDNGAIEVIDLNDDEEASLDEDDDLGYLQKKQHKGSKRKTRQAKALEARKAPKSFLELLQEANLESLPSHVPTYLKAAVGPPSSSSRRYFCSVCGYIAGYNCCLCGMRFCSIRCQNIHKDTRCQKFVA
binding [2]: binds

Source: PMC4358907
